# Data published in paper PMC7819943, “Rice protein-binding microarrays: a tool to detect cis-acting elements near promoter regions in rice”.
# The other results are listed elsewhere or left out.
# Biological target: T1, OsSMF1 (Oryza sativa, UniProt Q6ZLB0 1-436)
# T1 sequence: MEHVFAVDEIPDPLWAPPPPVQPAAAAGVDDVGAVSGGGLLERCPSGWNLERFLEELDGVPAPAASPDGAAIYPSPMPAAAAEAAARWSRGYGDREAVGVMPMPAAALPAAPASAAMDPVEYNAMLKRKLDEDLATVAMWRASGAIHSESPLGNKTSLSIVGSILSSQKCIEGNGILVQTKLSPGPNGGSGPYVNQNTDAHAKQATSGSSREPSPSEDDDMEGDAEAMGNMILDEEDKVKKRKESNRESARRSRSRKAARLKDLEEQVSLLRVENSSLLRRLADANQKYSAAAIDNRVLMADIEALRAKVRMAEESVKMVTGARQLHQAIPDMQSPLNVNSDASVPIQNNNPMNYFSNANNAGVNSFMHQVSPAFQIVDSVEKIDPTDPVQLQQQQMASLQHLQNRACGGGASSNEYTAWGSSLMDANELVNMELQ
# Test: protein-binding microarray (RPBM); PBS, 2% BSA, 51.3 ng/ul salmon testes DNA, 50 uM zinc acetate, 200 nM TF, 25 C, 1 h; high values mean tight binding
# Details: protein: recombinant; tags: N-terminal polyhistidine and DsRed monomer fusion (pET32a); chain copies: 2; label: CyDye5-dUTP incorporated in the synthesized complementary strand; 3' TTTTT single-stranded linker to array surface; dsDNA, one strand shown
# How it was run: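 In PBS with 2% BSA, salmon testes DNA and 50 µM zinc acetate, 200 nM protein was incubated on a custom Agilent array at 25 °C for 1 h and then washed off. The array had been made double-stranded by primer extension with Cy5-dUTP and blocked with 2% BSA. The proteins were transcription factors fused N-terminally to polyhistidine and DsRed, expressed in E. coli BL21-CodonPlus and purified on Ni–NTA. The binding signal is per-feature fluorescence intensity (arbitrary units) from an Axon 4000B scanner.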
row,Sequence,binding signal
1,GATGTTTCAACACGTTGGAAGTATTTGATCCGACCCTATTCGGAGTCACCTAGTGCAG,4010 fluorescence intensity (a.u.)
2,ATAATTATTTGTTTTCAGTCATGTATCTTCATCTTATACACGGAGTCACCTAGTGCAG,29600 fluorescence intensity (a.u.)
3,CAATAATAGGATTAGAATGAAGAAAGCACCCCTGAGCTTGCGGAGTCACCTAGTGCAG,3420 fluorescence intensity (a.u.)
4,ATTAGCTTTCTTTCATTTTCTCCCTCTGCGAGCAGAGGAACGGAGTCACCTAGTGCAG,3180 fluorescence intensity (a.u.)
5,CCTGCGTGCGTGCCAACGTGGCCGTGTAAAAGCCGCCTCACGGAGTCACCTAGTGCAG,7480 fluorescence intensity (a.u.)
6,CGTACGTATCTCTTGTTCTCCTCGCGTCAGCGACCAACGGCGGAGTCACCTAGTGCAG,5010 fluorescence intensity (a.u.)
7,ACAACCCACTCCCACCTAGCTCAACCTCACGCTCAAGCTGCGGAGTCACCTAGTGCAG,3440 fluorescence intensity (a.u.)
8,CATTCCCCTCTCCCCAATTTACCATACACACATGGATGTACGGAGTCACCTAGTGCAG,3640 fluorescence intensity (a.u.)
9,GTGCTCTTTAATTATCACTTTGTGCGCACTTTTCTTTGATCGGAGTCACCTAGTGCAG,33900 fluorescence intensity (a.u.)
10,CAAACTTCTCACACACACGCTGACGCCTGAGTGCTGACCGCGGAGTCACCTAGTGCAG,3330 fluorescence intensity (a.u.)
11,GGTGCATGCACGCACGCACGGCATTGCAGAGCCCGTGACGCGGAGTCACCTAGTGCAG,3790 fluorescence intensity (a.u.)
12,CATCTGGCCCGTGACACGCGTGCCACCATGGCGGTTCCACCGGAGTCACCTAGTGCAG,7090 fluorescence intensity (a.u.)
13,TAGCCACGGCGACGGTGGAAGGGCGGCGAACTACACGTGCCGGAGTCACCTAGTGCAG,3610 fluorescence intensity (a.u.)
14,ATCTGCTTTGTGAGGCACATGAAGCTGGAGATATCTGTCACGGAGTCACCTAGTGCAG,4740 fluorescence intensity (a.u.)
15,TCTGATTTAACTGCATTGCATTTGTGTCATTGACATGTGGCGGAGTCACCTAGTGCAG,4280 fluorescence intensity (a.u.)
16,GGCGAGCGGCAAATCCAAATCGGCACACGAGCGAGACTGCCGGAGTCACCTAGTGCAG,3410 fluorescence intensity (a.u.)
17,ATTCTCTGTGTTTCGGATGACGTCCCATGACAATTCACTGCGGAGTCACCTAGTGCAG,3830 fluorescence intensity (a.u.)
18,TGGATGTTCGAGATTCGTCCACGTCACCATGAGTTAAATTCGGAGTCACCTAGTGCAG,11000 fluorescence intensity (a.u.)
19,GCTTTGGCGTCTCTAAATGACACGATTATAATCAACTTACCGGAGTCACCTAGTGCAG,3200 fluorescence intensity (a.u.)
20,TCGTCGCCCACTGCCACCGCTGACGTCACCGCACTCTCGCCGGAGTCACCTAGTGCAG,30500 fluorescence intensity (a.u.)
21,GCGCACGGCACAGGGGCGGCACGCGACTCCTCCCGTCCTCCGGAGTCACCTAGTGCAG,35600 fluorescence intensity (a.u.)
22,GCGCCGCTCATCTCCCCACCGCCCACGTGCTGCTCCTCCACGGAGTCACCTAGTGCAG,3550 fluorescence intensity (a.u.)
23,TGGATTTTCCAGAGGCCCACGTAGACGAATCAGCTGGGACCGGAGTCACCTAGTGCAG,4930 fluorescence intensity (a.u.)
24,ATATTTGCCAACTCATGGATGCCCATTTACCCACAACATTCGGAGTCACCTAGTGCAG,5870 fluorescence intensity (a.u.)
25,TACTTCATATATATGTAACCCAAAATCCCTTGTAGTATGGCGGAGTCACCTAGTGCAG,3510 fluorescence intensity (a.u.)
26,TCTTGCACGACACAACTGACTTGGCCCTCATGTCAACTGTCGGAGTCACCTAGTGCAG,3300 fluorescence intensity (a.u.)
27,CTCCGTTATCAAATATCGTGTCTCGTTGTCGTCATCATATCGGAGTCACCTAGTGCAG,3800 fluorescence intensity (a.u.)

# A different layout for some results above.
row	Sequence	binding signal
7	ACAACCCACTCCCACCTAGCTCAACCTCACGCTCAAGCTGCGGAGTCACCTAGTGCAG	3440 fluorescence intensity (a.u.)
8	CATTCCCCTCTCCCCAATTTACCATACACACATGGATGTACGGAGTCACCTAGTGCAG	3640 fluorescence intensity (a.u.)
9	GTGCTCTTTAATTATCACTTTGTGCGCACTTTTCTTTGATCGGAGTCACCTAGTGCAG	33900 fluorescence intensity (a.u.)
10	CAAACTTCTCACACACACGCTGACGCCTGAGTGCTGACCGCGGAGTCACCTAGTGCAG	3330 fluorescence intensity (a.u.)
11	GGTGCATGCACGCACGCACGGCATTGCAGAGCCCGTGACGCGGAGTCACCTAGTGCAG	3790 fluorescence intensity (a.u.)

# (continued)

row,Sequence,binding signal
1,CTCCGTCGTCGTCATCATCCACTCTCCTCTCCCCTGGTTTCGGAGTCACCTAGTGCAG,9770 fluorescence intensity (a.u.)
2,TAAATGACATCGTTGCATACCTCACATTAATTCAACTACACGGAGTCACCTAGTGCAG,11900 fluorescence intensity (a.u.)
3,CTGTCTGTATTGAGATCACATGCAGTCACTACTATGACTGCGGAGTCACCTAGTGCAG,3190 fluorescence intensity (a.u.)
4,GCACTGCTAAAAGATTACTGCAATGTTAATCCTGGAGTACCGGAGTCACCTAGTGCAG,35300 fluorescence intensity (a.u.)
5,ATGTTTAATCAACCTCTAAATCAATAAGATTAGTCATGTACGGAGTCACCTAGTGCAG,3950 fluorescence intensity (a.u.)
6,CCCTATATAAACCGCCACGCCACGCCACGGCCACCAACTCCGGAGTCACCTAGTGCAG,6640 fluorescence intensity (a.u.)
7,TTCCTGCTGCTTGGGCTCGTGATCGTCGTCCGTGTCCTTGCGGAGTCACCTAGTGCAG,3300 fluorescence intensity (a.u.)
8,TAGGAGCATATGAATATATCCATTCCTGCAACATCATCATCGGAGTCACCTAGTGCAG,3360 fluorescence intensity (a.u.)
9,CTAGGCCCGGTCCACGGTGGACCCAGCGGCTCACCGGCATCGGAGTCACCTAGTGCAG,3200 fluorescence intensity (a.u.)
10,CATCCACCGCAATGCTCAAGCTTCCAATGCAATTCTCTCCCGGAGTCACCTAGTGCAG,3810 fluorescence intensity (a.u.)
11,CGCCTTCGTCCCATCTCGACCGTCCACGTGTGGCCCATCCCGGAGTCACCTAGTGCAG,8200 fluorescence intensity (a.u.)
12,GAAAGGGTTTGAACGTCTCTGTTCTGGCTTGTCTAAGAGACGGAGTCACCTAGTGCAG,3240 fluorescence intensity (a.u.)
13,CCAGCTAGTATTGCACCTCGGTGTAGCGTGAGCCGTGGCCCGGAGTCACCTAGTGCAG,6470 fluorescence intensity (a.u.)
14,AGCTCGACGCCCTCAAGCGCCTCCTCGCCCTCATCGCCCACGGAGTCACCTAGTGCAG,5690 fluorescence intensity (a.u.)
15,GAAAATCAGCTATGGTTGCTCACGTACTGAACTTGTCGTCCGGAGTCACCTAGTGCAG,3220 fluorescence intensity (a.u.)
16,CACTGCCATAGTGTGATGAAACATTTATAAACCGTGTCATCGGAGTCACCTAGTGCAG,3230 fluorescence intensity (a.u.)
17,CACTAACTACAAAGCCCCTGCCCACGTATATACATCAGGCCGGAGTCACCTAGTGCAG,4370 fluorescence intensity (a.u.)
18,TTGTTCTAAGCTCTAGCCGCTGCCGTCGTGGCGTAGAGAGCGGAGTCACCTAGTGCAG,3480 fluorescence intensity (a.u.)
19,GCTACGGGCTTGACTGTTGCAATCAATCTTTTGTCTGTTGCGGAGTCACCTAGTGCAG,3180 fluorescence intensity (a.u.)
20,ACGCATCCACGTCACTGATGTCCGGGCCCCGCTTAGATGTCGGAGTCACCTAGTGCAG,18000 fluorescence intensity (a.u.)
21,TACTCCGTACATGTGTTCAAATGTTCGATGTGACGGGGCACGGAGTCACCTAGTGCAG,4390 fluorescence intensity (a.u.)
22,GGAACATTGTTTTGAGATGGTTCAGACTTCAGAGAATAATCGGAGTCACCTAGTGCAG,27100 fluorescence intensity (a.u.)
23,TCCAACTTGGGGAGGGAGGGCCGTTTCAGCTCGGGCTTTTCGGAGTCACCTAGTGCAG,3750 fluorescence intensity (a.u.)
24,CAACAGTGCTGGCTTCTGCATGTAGACGTGTTCACTCACACGGAGTCACCTAGTGCAG,4410 fluorescence intensity (a.u.)
25,GCTAGGACATGATGTGATCTGGACAGGAAAACGGAAAACGCGGAGTCACCTAGTGCAG,3520 fluorescence intensity (a.u.)
26,GGCTTAAAAGATTCGTTTCATAATTTACACGCAAACTGTACGGAGTCACCTAGTGCAG,3890 fluorescence intensity (a.u.)
27,GAAATTGACGCTACAACGACTAACAAAATGCCGAAGCGTCCGGAGTCACCTAGTGCAG,3620 fluorescence intensity (a.u.)
